# Source: paper doi:10.1101/2023.07.15.549169
# No constants are given. Whether binding was seen depends on the method and setting. For some assays here: In cells and extracts the contact can be indirect. Some results given as binding are weak or reduced against the parent protein; the word gives no strength. Where a sequence is shown, tags or fusion partners need not be part of it.
# B1: Flag-tagged SMAD3 WT, P84022 1-425 (natural protein)
# chain: MSSILPFTPPIVKRLLGWKKGEQNGQEEKWCEKAVKSLVKKLKKTGQLDELEKAITTQNVNTKCITIPRSLDGRLQVSHRKGLPHVIYCRLWRWPDLHSHHELRAMELCEFAFNMKKDEVCVNPYHYQRVETPVLPPVLVPRHTEIPAEFPPLDDYSHSIPENTNFPAGIEPQSNIPETPPPGYLSEDGETSDHQMNHSMDAGSPNLSPNPMSPAHNNLDLQPVTYCEPAFWCSISYYELNQRVGETFHASQPSMTVDGFTDPSNSERFCLGLLSNVNRNAAVELTRRHIGRGVRLYYIGGEVFAECLSDSAIFVQSPNCNQRYGWHPATVCKIPPGCNLKIFNNQEFAALLAQSVNQGFEAVYQLTRMCTIRMSFVKGWGAEYRRQTVTSTPCWIELHLNGPLQWLDKVLTQMGSPSIRCSSVS
# B2: Venus-flag-tagged (VF) SMAD3 (full-length), P84022 1-425 (protein)
# chain: B1 chain
# Assays:
# [1] = molecular target: T1, His-tagged SMAD4 WT (Mothers against decapentaplegic homolog 4), Q13485; assay: AlphaScreen or HTRF; conditions: remark: other sources report otherwise
# T1 chain: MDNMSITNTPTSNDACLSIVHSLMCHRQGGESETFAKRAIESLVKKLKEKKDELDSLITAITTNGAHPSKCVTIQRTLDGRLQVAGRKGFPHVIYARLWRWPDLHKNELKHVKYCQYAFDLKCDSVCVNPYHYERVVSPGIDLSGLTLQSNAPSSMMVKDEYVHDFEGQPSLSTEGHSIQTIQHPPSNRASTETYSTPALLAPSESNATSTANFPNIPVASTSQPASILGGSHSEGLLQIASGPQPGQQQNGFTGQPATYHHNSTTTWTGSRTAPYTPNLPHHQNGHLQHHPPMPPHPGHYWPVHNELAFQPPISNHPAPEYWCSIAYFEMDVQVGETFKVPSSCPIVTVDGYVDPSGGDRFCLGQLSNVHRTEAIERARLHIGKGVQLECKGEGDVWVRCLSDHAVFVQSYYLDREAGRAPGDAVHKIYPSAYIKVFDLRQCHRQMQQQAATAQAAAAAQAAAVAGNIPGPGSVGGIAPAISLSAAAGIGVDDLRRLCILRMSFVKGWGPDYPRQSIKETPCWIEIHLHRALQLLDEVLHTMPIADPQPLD
# [2] = molecular target: T2, GST-SMAD4 (full-length), Q13485; assay: pull-down; conditions: remark: other sources report otherwise
# T2 chain: T1 chain
Binder,binding [1],binding [2]
B1,binds,
B2,,binds
